{"source": "PubChem BioAssay AID1259283 | Sanger Institute – 2017", "aim": "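Kinases needed for HT115 growth and partners for drug synergy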 (primary screen)", "system": "HT115 colorectal cancer cells", "reagents": "siRNA pool against human genes", "treatment": "anchor drug given one day after siRNA: BYL719 at 1 µM, cetuximab at 5 µg/ml, trametinib at 10 nM, or DMSO vehicle alone", "read-out": "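Per-drug synergy scores plus replicate-mean viability relative to non-targeting pool #2 wells, also expressed as a robust z-score based on control wells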", "reading the numbers": "robust z-score, knock-down alone: higher = more viable cells after knock-down; viability, DMSO vs non-targeting control: higher = more viable cells", "units": "viability, DMSO vs non-targeting control in fraction of control", "active means": "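Essential gene: robust z-score less than -3 with no drug added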", "meaning of the calls": "active = essential (z below -3, no drug); inactive = no change without drug", "note": "In all, the deposit lists 794 reagents; below is a part drawn at random. 14 of them (1.8%) were called active. 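Calls reflect only viability loss without drug; drug synergy does not enter the call.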 No viability above 1 is reported: the scale is capped. Not all columns of the deposit are shown. The record does not give: the amount of reagent, the time to read-out."}
{"gene": "IKBKB (GeneID 3551)", "robust z-score, knock-down alone": -0.224, "viability, DMSO vs non-targeting control": 0.906, "activity call": "inactive"}
{"gene": "MAPK1 (GeneID 5594)", "robust z-score, knock-down alone": 0.69, "viability, DMSO vs non-targeting control": 0.991, "activity call": "inactive"}
{"gene": "CRIM1 (GeneID 51232)", "robust z-score, knock-down alone": 0.253, "viability, DMSO vs non-targeting control": 0.95, "activity call": "inactive"}
{"gene": "SMAD4 (GeneID 4089)", "robust z-score, knock-down alone": 0.453, "viability, DMSO vs non-targeting control": 0.969, "activity call": "inactive"}
{"gene": "CDC42BPA (GeneID 8476)", "robust z-score, knock-down alone": -1.96, "viability, DMSO vs non-targeting control": 0.746, "activity call": "inactive"}
{"gene": "FGFR1 (GeneID 2260)", "robust z-score, knock-down alone": 0.59, "viability, DMSO vs non-targeting control": 0.982, "activity call": "inactive"}
{"gene": "NTRK3 (GeneID 4916)", "robust z-score, knock-down alone": 0.789, "viability, DMSO vs non-targeting control": 1, "activity call": "inactive"}
{"gene": "CDKN1A (GeneID 1026)", "robust z-score, knock-down alone": 0.789, "viability, DMSO vs non-targeting control": 1, "activity call": "inactive"}
{"gene": "RAF1 (GeneID 5894)", "robust z-score, knock-down alone": 0.538, "viability, DMSO vs non-targeting control": 0.977, "activity call": "inactive"}
{"gene": "RET (GeneID 5979)", "robust z-score, knock-down alone": 0.789, "viability, DMSO vs non-targeting control": 1, "activity call": "inactive"}

An excerpt from the list above, for reference:
{"gene": "CDKN1A (GeneID 1026)", "robust z-score, knock-down alone": 0.789, "viability, DMSO vs non-targeting control": 1, "activity call": "inactive"}
{"gene": "RAF1 (GeneID 5894)", "robust z-score, knock-down alone": 0.538, "viability, DMSO vs non-targeting control": 0.977, "activity call": "inactive"}

Continued.
{"gene": "TSSK6 (GeneID 83983)", "robust z-score, knock-down alone": 0.789, "viability, DMSO vs non-targeting control": 1, "activity call": "inactive"}
{"gene": "PRKCA (GeneID 5578)", "robust z-score, knock-down alone": 0.409, "viability, DMSO vs non-targeting control": 0.965, "activity call": "inactive"}
{"gene": "NPR2 (GeneID 4882)", "robust z-score, knock-down alone": 0.789, "viability, DMSO vs non-targeting control": 1, "activity call": "inactive"}
{"gene": "CAMK1 (GeneID 8536)", "robust z-score, knock-down alone": 0.789, "viability, DMSO vs non-targeting control": 1, "activity call": "inactive"}
{"gene": "DCLK3 (GeneID 85443)", "robust z-score, knock-down alone": 0.789, "viability, DMSO vs non-targeting control": 1, "activity call": "inactive"}
{"gene": "AK3 (GeneID 50808)", "robust z-score, knock-down alone": 0.789, "viability, DMSO vs non-targeting control": 1, "activity call": "inactive"}
{"gene": "PIP4K2C (GeneID 79837)", "robust z-score, knock-down alone": 0.109, "viability, DMSO vs non-targeting control": 0.937, "activity call": "inactive"}
{"gene": "PIM1 (GeneID 5292)", "robust z-score, knock-down alone": 0.58, "viability, DMSO vs non-targeting control": 0.981, "activity call": "inactive"}
{"gene": "TRIB1 (GeneID 10221)", "robust z-score, knock-down alone": 0.789, "viability, DMSO vs non-targeting control": 1, "activity call": "inactive"}
{"gene": "MYH10 (GeneID 4628)", "robust z-score, knock-down alone": -0.951, "viability, DMSO vs non-targeting control": 0.839, "activity call": "inactive"}
{"gene": "DMPK (GeneID 1760)", "robust z-score, knock-down alone": 0.789, "viability, DMSO vs non-targeting control": 1, "activity call": "inactive"}
{"gene": "RPS6KL1 (GeneID 83694)", "robust z-score, knock-down alone": 0.747, "viability, DMSO vs non-targeting control": 0.996, "activity call": "inactive"}
{"gene": "MARK1 (GeneID 4139)", "robust z-score, knock-down alone": 0.789, "viability, DMSO vs non-targeting control": 1, "activity call": "inactive"}
{"gene": "GRK3 (GeneID 157)", "robust z-score, knock-down alone": 0.244, "viability, DMSO vs non-targeting control": 0.95, "activity call": "inactive"}
{"gene": "CAMKV (GeneID 79012)", "robust z-score, knock-down alone": 0.789, "viability, DMSO vs non-targeting control": 1, "activity call": "inactive"}
{"gene": "FGFR4 (GeneID 2264)", "robust z-score, knock-down alone": 0.789, "viability, DMSO vs non-targeting control": 1, "activity call": "inactive"}
{"gene": "EEF2K (GeneID 29904)", "robust z-score, knock-down alone": -1.8, "viability, DMSO vs non-targeting control": 0.761, "activity call": "inactive"}
{"gene": "MOK (GeneID 5891)", "robust z-score, knock-down alone": -1.57, "viability, DMSO vs non-targeting control": 0.782, "activity call": "inactive"}
